Test results: publication PMC9698156
Read-outs that look alike come from different tables or passages of the source. No constants are given. Whether binding was seen depends on the method and setting. Binding seen in cells or lysates may run through a third protein. For some assays here: Binding can be weak; no strength is given. For some assays here: Where a sequence is shown, tags or fusion partners need not be part of it.

Amino acid sequences for entries named in this document (tags omitted). A change or cut given only in a name is not applied to a line headed by its entry.
UniProt Q96L96: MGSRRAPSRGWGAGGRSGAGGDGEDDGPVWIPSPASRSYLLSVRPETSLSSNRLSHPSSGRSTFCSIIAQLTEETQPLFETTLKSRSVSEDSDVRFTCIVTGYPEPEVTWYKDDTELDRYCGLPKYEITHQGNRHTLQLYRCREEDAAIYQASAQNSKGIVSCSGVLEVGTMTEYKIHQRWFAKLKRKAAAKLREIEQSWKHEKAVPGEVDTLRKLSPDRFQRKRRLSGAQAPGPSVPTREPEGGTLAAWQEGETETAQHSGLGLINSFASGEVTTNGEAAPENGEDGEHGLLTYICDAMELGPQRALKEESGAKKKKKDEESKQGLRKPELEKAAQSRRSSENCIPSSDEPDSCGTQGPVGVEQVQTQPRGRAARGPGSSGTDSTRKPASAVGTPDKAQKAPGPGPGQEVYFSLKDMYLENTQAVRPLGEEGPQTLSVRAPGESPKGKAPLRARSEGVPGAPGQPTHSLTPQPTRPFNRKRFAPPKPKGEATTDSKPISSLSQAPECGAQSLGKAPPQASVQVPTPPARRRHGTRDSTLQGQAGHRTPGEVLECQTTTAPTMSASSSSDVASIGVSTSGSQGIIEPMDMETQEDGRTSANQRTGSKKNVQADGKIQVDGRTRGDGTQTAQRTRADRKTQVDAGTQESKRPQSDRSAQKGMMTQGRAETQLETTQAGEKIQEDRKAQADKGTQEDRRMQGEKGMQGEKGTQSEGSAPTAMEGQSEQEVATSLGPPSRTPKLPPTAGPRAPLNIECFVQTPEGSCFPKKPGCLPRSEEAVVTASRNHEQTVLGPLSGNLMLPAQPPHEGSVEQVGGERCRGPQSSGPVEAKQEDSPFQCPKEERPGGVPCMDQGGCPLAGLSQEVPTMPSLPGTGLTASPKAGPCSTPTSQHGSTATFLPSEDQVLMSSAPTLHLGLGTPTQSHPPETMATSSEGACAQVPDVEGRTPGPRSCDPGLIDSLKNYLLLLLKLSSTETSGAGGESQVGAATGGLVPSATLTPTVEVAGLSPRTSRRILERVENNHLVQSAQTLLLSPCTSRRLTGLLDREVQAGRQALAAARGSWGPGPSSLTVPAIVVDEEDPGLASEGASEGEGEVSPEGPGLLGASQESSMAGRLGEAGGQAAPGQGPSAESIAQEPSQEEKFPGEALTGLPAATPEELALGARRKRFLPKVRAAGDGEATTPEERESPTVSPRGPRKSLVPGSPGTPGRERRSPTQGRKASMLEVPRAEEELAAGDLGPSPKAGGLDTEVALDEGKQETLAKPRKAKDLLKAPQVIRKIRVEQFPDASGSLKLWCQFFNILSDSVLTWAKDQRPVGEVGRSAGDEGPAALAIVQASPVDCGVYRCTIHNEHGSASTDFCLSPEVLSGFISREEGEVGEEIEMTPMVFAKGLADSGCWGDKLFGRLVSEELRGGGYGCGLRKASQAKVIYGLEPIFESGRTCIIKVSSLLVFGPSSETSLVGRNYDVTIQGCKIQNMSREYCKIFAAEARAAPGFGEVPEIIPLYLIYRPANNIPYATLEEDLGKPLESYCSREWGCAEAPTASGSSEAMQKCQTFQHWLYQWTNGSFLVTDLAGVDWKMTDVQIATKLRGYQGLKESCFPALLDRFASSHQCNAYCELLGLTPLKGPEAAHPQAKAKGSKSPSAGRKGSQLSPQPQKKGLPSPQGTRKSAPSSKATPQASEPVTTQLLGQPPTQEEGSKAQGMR
UniProt P52179: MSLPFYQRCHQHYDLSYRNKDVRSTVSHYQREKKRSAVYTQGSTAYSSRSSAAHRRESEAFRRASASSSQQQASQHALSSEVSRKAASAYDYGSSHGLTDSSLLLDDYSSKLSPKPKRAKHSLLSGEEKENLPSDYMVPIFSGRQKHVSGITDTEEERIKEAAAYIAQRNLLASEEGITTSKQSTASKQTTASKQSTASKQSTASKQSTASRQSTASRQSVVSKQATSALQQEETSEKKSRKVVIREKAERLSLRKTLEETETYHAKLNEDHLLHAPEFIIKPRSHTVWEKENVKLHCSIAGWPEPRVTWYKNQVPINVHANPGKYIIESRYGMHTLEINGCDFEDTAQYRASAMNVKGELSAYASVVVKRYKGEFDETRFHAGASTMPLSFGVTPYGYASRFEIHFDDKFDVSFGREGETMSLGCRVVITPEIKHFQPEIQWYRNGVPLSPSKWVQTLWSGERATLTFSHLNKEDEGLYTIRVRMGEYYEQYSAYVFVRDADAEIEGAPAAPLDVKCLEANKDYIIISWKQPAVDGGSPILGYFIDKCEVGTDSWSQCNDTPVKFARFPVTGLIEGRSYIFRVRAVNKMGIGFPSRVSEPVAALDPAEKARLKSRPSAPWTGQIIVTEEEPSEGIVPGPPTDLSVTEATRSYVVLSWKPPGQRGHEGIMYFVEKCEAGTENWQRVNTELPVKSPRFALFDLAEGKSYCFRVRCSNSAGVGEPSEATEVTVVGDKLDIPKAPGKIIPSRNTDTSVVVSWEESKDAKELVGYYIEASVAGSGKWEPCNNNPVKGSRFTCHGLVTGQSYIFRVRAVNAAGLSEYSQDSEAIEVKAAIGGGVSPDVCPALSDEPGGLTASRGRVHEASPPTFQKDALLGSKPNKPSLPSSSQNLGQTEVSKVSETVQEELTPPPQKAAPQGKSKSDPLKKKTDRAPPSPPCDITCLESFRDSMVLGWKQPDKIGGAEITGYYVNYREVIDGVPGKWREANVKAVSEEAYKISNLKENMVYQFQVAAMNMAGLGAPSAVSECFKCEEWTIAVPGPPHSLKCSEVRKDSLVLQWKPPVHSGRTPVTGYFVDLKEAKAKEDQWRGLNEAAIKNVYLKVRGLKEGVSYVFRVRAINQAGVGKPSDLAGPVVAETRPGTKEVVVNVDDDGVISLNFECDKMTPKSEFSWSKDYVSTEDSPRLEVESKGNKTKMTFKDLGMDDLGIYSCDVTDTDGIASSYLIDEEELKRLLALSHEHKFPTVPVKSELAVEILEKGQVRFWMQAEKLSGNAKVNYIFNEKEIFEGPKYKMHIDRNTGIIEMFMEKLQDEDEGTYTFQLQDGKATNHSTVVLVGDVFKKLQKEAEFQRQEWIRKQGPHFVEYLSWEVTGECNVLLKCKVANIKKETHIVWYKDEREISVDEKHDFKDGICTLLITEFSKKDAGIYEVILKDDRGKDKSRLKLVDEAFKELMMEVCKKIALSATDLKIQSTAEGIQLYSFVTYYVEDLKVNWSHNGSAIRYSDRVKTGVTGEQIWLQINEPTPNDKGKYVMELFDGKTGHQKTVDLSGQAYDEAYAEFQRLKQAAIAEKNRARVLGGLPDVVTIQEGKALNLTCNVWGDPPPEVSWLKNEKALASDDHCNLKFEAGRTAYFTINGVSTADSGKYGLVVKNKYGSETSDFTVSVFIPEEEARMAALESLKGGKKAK

B1: MYOM2-HA (protein, UniProt P54296 1-1465)
chain: MSLVTVPFYQKRHRHFDQSYRNIQTRYLLDEYASKKRASTQASSQKSLSQRSSSQRASSQTSLGGTICRVCAKRVSTQEDEEQENRSRYQSLVAAYGEAKRQRFLSELAHLEEDVHLARSQARDKLDKYAIQQMMEDKLAWERHTFEERISRAPEILVRLRSHTVWERMSVKLCFTVQGFPTPVVQWYKDGSLICQAAEPGKYRIESNYGVHTLEINRADFDDTATYSAVATNAHGQVSTNAAVVVRRFRGDEEPFRSVGLPIGLPLSSMIPYTHFDVQFLEKFGVTFRREGETVTLKCTMLVTPDLKRVQPRAEWYRDDVLLKESKWTKMFFGEGQASLSFSHLHKDDEGLYTLRIVSRGGVSDHSAFLFVRDADPLVTGAPGAPMDLQCHDANRDYVIVTWKPPNTTTESPVMGYFVDRCEVGTNNWVQCNDAPVKICKYPVTGLFEGRSYIFRVRAVNSAGISRPSRVSDAVAALDPLDLRRLQAVHLEGEKEIAIYQDDLEGDAQVPGPPTGVHASEISRNYVVLSWEPPTPRGKDPLMYFIEKSVVGSGSWQRVNAQTAVRSPRYAVFDLMEGKSYVFRVLSANRHGLSEPSEITSPIQAQDVTVVPSAPGRVLASRNTKTSVVVQWDRPKHEEDLLGYYVDCCVAGTNLWEPCNHKPIGYNRFVVHGLTTGEQYIFRVKAVNAVGMSENSQESDVIKVQAALTVPSHPYGITLLNCDGHSMTLGWKVPKFSGGSPILGYYLDKREVHHKNWHEVNSSPSKPTILTVDGLTEGSLYEFKIAAVNLAGIGEPSDPSEHFKCEAWTMPEPGPAYDLTFCEVRDTSLVMLWKAPVYSGSSPVSGYFVDFREEDAGEWITVNQTTTASRYLKVSDLQQGKTYVFRVRAVNANGVGKPSDTSEPVLVEARPGTKEISAGVDEQGNIYLGFDCQEMTDASQFTWCKSYEEISDDERFKIETVGDHSKLYLKNPDKEDLGTYSVSVSDTDGVSSSFVLDPEELERLMALSNEIKNPTIPLKSELAYEIFDKGRVRFWLQAEHLSPDASYRFIINDREVSDSEIHRIKCDKATGIIEMVMDRFSIENEGTYTVQIHDGKAKSQSSLVLIGDAFKTVLEEAEFQRKEFLRKQGPHFAEYLHWDVTEECEVRLVCKVANTKKETVFKWLKDDVLYETETLPNLERGICELLIPKLSKKDHGEYKATLKDDRGQDVSILEIAGKVYDDMILAMSRVCGKSASPLKVLCTPEGIRLQCFMKYFTDEMKVNWCHKDAKISSSEHMRIGGSEEMAWLQICEPTEKDKGKYTFEIFDGKDNHQRSLDLSGQAFDEAFAEFQQFKAAAFAEKNRGRLIGGLPDVVTIMEGKTLNLTCTVFGNPDPEVIWFKNDQDIQLSEHFSVKVEQAKYVSMTIKGVTSEDSGKYSINIKNKYGGEKIDVTVSVYKHGEKIPDMAPPQQAKPKLIPASASAAGQ

Tests used:
human ALPK3-FLAG (human) [1] = target: human ALPK3-FLAG (human) (UniProt Q96L96); test: co-IP; HEK293T cells transfected with the tagged proteins; FLAG-IP with anti-FLAG M2 magnetic beads, eluted with SDS-PAGE sample buffer, Western blot (anti-FLAG, anti-HA)
human ALPK3-FLAG (human) [2] = target: human ALPK3-FLAG (human) (UniProt Q96L96); test: as above; remark: listed apart in the source

Molecule	binding (human ALPK3-FLAG (human) [1])	binding (human ALPK3-FLAG (human) [2])
MYOM1-HA (from UniProt P52179 1-1685)	no binding	–
B1	–	binds
